Results taken from article PMC12077520.
These are yes or no findings as the source states them, for the method shown. Binding seen in cells or lysates may run through a third protein. These calls come from enrichment with a bait or labelling near it, and not all partners need be listed. A no says only that the protein was not detected with the bait.

B1: NFATC2IP (protein, UniProt Q8NCF5 1-419)
chain: MAEPVGKRGRWSGGSGAGRGGRGGWGGRGRRPRAQRSPSRGTLDVVSVDLVTDSDEEILEVATARGAADEVEVEPPEPPGPVASRDNSNSDSEGEDRRPAGPPREPVRRRRRLVLDPGEAPLVPVYSGKVKSSLRLIPDDLSLLKLYPPGDEEEAELADSSGLYHEGSPSPGSPWKTKLRTKDKEEKKKTEFLDLDNSPLSPPSPRTKSRTHTRALKKLSEVNKRLQDLRSCLSPKPPQGQEQQGQEDEVVLVEGPTLPETPRLFPLKIRCRADLVRLPLRMSEPLQSVVDHMATHLGVSPSRILLLFGETELSPTATPRTLKLGVADIIDCVVLTSSPEATETSQQLQLRVQGKEKHQTLEVSLSRDSPLKTLMSHYEEAMGLSGRKLSFFFDGTKLSGRELPADLGMESGDLIEVWG
B2: SAE1 (enzyme, UniProt Q9UBE0 1-346)
chain: MVEKEEAGGGISEEEAAQYDRQIRLWGLEAQKRLRASRVLLVGLKGLGAEIAKNLILAGVKGLTMLDHEQVTPEDPGAQFLIRTGSVGRNRAEASLERAQNLNPMVDVKVDTEDIEKKPESFFTQFDAVCLTCCSRDVIVKVDQICHKNSIKFFTGDVFGYHGYTFANLGEHEFVEEKTKVAKVSQGVEDGPDTKRAKLDSSETTMVKKKVVFCPVKEALEVDWSSEKAKAALKRTTSDYFLLQVLLKFRTDKGRDPSSDTYEEDSELLLQIRNDVLDSLGISPDLLPEDFVRYCFSEMAPVCAVVGGILAQEIVKALSQRDPPHNNFFFFDGMKGNGIVECLGPK
B3: RNF111 (protein, UniProt Q6ZNA4 1-994)
chain: MSQWTPEYNELYTLKVDMKSEIPSDAPKTQESLKGILLHPEPIGAAKSFPAGVEMINSKVGNEFSHLCDDSQKQEKEMNGNQQEQEKSLVVRKKRKSQQAGPSYVQNCVKENQGILGLRQHLGTPSDEDNDSSFSDCLSSPSSSLHFGDSDTVTSDEDKEVSVRHSQTILNAKSRSHSARSHKWPRTETESVSGLLMKRPCLHGSSLRRLPCRKRFVKNNSSQRTQKQKERILMQRKKREVLARRKYALLPSSSSSSENDLSSESSSSSSTEGEEDLFVSASENHQNNPAVPSGSIDEDVVVIEASSTPQVTANEEINVTSTDSEVEIVTVGESYRSRSTLGHSRSHWSQGSSSHASRPQEPRNRSRISTVIQPLRQNAAEVVDLTVDEDEPTVVPTTSARMESQATSASINNSNPSTSEQASDTASAVTSSQPSTVSETSATLTSNSTTGTSIGDDSRRTTSSAVTETGPPAMPRLPSCCPQHSPCGGSSQNHHALGHPHTSCFQQHGHHFQHHHHHHHTPHPAVPVSPSFSDPACPVERPPQVQAPCGANSSSGTSYHEQQALPVDLSNSGIRSHGSGSFHGASAFDPCCPVSSSRAAIFGHQAAAAAPSQPLSSIDGYGSSMVAQPQPQPPPQPSLSSCRHYMPPPYASLTRPLHHQASACPHSHGNPPPQTQPPPQVDYVIPHPVHAFHSQISSHATSHPVAPPPPTHLASTAAPIPQHLPPTHQPISHHIPATAPPAQRLHPHEVMQRMEVQRRRMMQHPTRAHERPPPHPHRMHPNYGHGHHIHVPQTMSSHPRQAPERSAWELGIEAGVTAATYTPGALHPHLAHYHAPPRLHHLQLGALPLMVPDMAGYPHIRYISSGLDGTSFRGPFRGNFEELIHLEERLGNVNRGASQGTIERCTYPHKYKKVTTDWFSQRKLHCKQDGEEGTEEDTEEKCTICLSILEEGEDVRRLPCMHLFHQVCVDQWLITNKKCPICRVDIEAQLPSES
B4: TOPORS (protein, UniProt Q9NS56 1-1045)
chain: MGSQPPLGSPLSREEGEAPPPAPASEGRRRSRRVRLRGSCRHRPSFLGCRELAASAPARPAPASSEIMASAAKEFKMDNFSPKAGTSKLQQTVPADASPDSKCPICLDRFDNVSYLDRCLHKFCFRCVQEWSKNKAECPLCKQPFDSIFHSVRAEDDFKEYVLRPSYNGSFVTPDRRFRYRTTLTRERNASVYSPSGPVNRRTTTPPDSGVLFEGLGISTRPRDVEIPQFMRQIAVRRPTTADERSLRKIQEQDIINFRRTLYRAGARVRNIEDGGRYRDISAEFFRRNPACLHRLVPWLKRELTVLFGAHGSLVNIVQHIIMSNVTRYDLESQAFVSDLRPFLLNRTEHFIHEFISFARSPFNMAAFDQHANYDCPAPSYEEGSHSDSSVITISPDEAETQELDINVATVSQAPWDDETPGPSYSSSEQVHVTMSSLLNTSDSSDEELVTGGATSQIQGVQTNDDLNNDSDDSSDNCVIVGFVKPLAERTPELVELSSDSEDLGSYEKMETVKTQEQEQSYSSGDSDVSRCSSPHSVLGKDEQINKGHCDSSTRIKSKKEEKRSTSLSSPRNLNSSVRGDRVYSPYNHRHRKRGRSRSSDSRSQSRSGHDQKNHRKHHGKKRMKSKRSRSRESSRPRGRRDKKRSRTRDSSWSRRSQTLSLSSESTSRSRSRSSDHGKRRSRSRNRDRYYLRNNYGSRYKWEYTYYSRNKDRDGYESSYRRRTLSRAHYSRQSSSPEFRVQSFSERTNARKKNNHSERKYYYYERHRSRSLSSNRSRTASTGTDRVRNEKPGGKRKYKTRHLEGTNEVAQPSREFASKAKDSHYQKSSSKLDGNYKNESDTFSDSRSSDRETKHKRRKRKTRSLSVEIVYEGKATDTTKHHKKKKKKHKKKHKKHHGDNASRSPVVITIDSDSDKDSEVKEDTECDNSGPQDPLQNEFLAPSLEPFETKDVVTIEAEFGVLDKECDIATLSNNLNNANKTVDNIPPLAASVEQTLDVREESTFVSDLENQPSNIVSLQTEPSRQLPSPRTSLMSVCLGRDCDMS
B5: PIAS3 (protein, UniProt Q9Y6X2 1-628)
chain: MAELGELKHMVMSFRVSELQVLLGFAGRNKSGRKHELLAKALHLLKSSCAPSVQMKIKELYRRRFPRKTLGPSDLSLLSLPPGTSPVGSPGPLAPIPPTLLAPGTLLGPKREVDMHPPLPQPVHPDVTMKPLPFYEVYGELIRPTTLASTSSQRFEEAHFTFALTPQQVQQILTSREVLPGAKCDYTIQVQLRFCLCETSCPQEDYFPPNLFVKVNGKLCPLPGYLPPTKNGAEPKRPSRPINITPLARLSATVPNTIVVNWSSEFGRNYSLSVYLVRQLTAGTLLQKLRAKGIRNPDHSRALIKEKLTADPDSEVATTSLRVSLMCPLGKMRLTVPCRALTCAHLQSFDAALYLQMNEKKPTWTCPVCDKKAPYESLIIDGLFMEILSSCSDCDEIQFMEDGSWCPMKPKKEASEVCPPPGYGLDGLQYSPVQGGDPSENKKKVEVIDLTIESSSDEEDLPPTKKHCSVTSAAIPALPGSKGVLTSGHQPSSVLRSPAMGTLGGDFLSSLPLHEYPPAFPLGADIQGLDLFSFLQTESQHYGPSVITSLDEQDALGHFFQYRGTPSHFLGPLAPTLGSSHCSATPAPPPGRVSSIVAPGGALREGHGGPLPSGPSLTGCRSDIISLD
B6: PIAS4 (protein, UniProt Q8N2W9 1-510)
chain: MAAELVEAKNMVMSFRVSDLQMLLGFVGRSKSGLKHELVTRALQLVQFDCSPELFKKIKELYETRYAKKNSEPAPQPHRPLDPLTMHSTYDRAGAVPRTPLAGPNIDYPVLYGKYLNGLGRLPAKTLKPEVRLVKLPFFNMLDELLKPTELVPQNNEKLQESPCIFALTPRQVELIRNSRELQPGVKAVQVVLRICYSDTSCPQEDQYPPNIAVKVNHSYCSVPGYYPSNKPGVEPKRPCRPINLTHLMYLSSATNRITVTWGNYGKSYSVALYLVRQLTSSELLQRLKTIGVKHPELCKALVKEKLRLDPDSEIATTGVRVSLICPLVKMRLSVPCRAETCAHLQCFDAVFYLQMNEKKPTWMCPVCDKPAPYDQLIIDGLLSKILSECEDADEIEYLVDGSWCPIRAEKERSCSPQGAILVLGPSDANGLLPAPSVNGSGALGSTGGGGPVGSMENGKPGADVVDLTLDSSSSSEDEEEEEEEEEDEDEEGPRPKRRCPFQKGLVPAC

Biological target: His10-SUMO2 IKR (I33A-K34A-R35A) (human (from the printed UniProt accession)) (UniProt P55854)
Assay: affinity purification with mass spectrometry; 100 ug His10-SUMO2/3 WT, IKR or QFI on Ni-NTA beads, incubated with whole-cell HeLa lysate 2 h at 4°C in 50 mM tris pH 7.5, 150 mM NaCl, 0.5% NP-40, 50 mM imidazole; eluted with 8 M urea; LC-MS/MS, label-free quantification against uncoated beads (t test, FDR 0.05), n = 4; only the target purified

Binder | binding
B1 | no binding
B2 | binds
B3 | no binding
B4 | no binding
B5 | no binding
B6 | no binding

Biological target: His10-SUMO2 QFI (Q30A-F31A-I33A) (human (from the printed UniProt accession)) (UniProt P55854)
Assay: as above

Binder | binding
B1 | no binding
B2 | binds
B3 | no binding
B4 | no binding
B5 | no binding
B6 | no binding
